Data taken from PubChem BioAssay AID1347423 (Functional Genomics Laboratory (NCATS/FGL), 2020).
About 210 (0.4%) of roughly 52,000 sequences were called active.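 The calls were made as follows: active = gene whose silencing raises cell survival under the drug, median off-target-corrected z-score across its silencing RNAs 2 or more; inactive = the rest.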 The list shows a part of the results.

Assay: Resistance to Poly (ADP-Ribose) Polymerase inhibitor: Gene Identification via Genome-wide siRNA Screen
Details: mouse BRCA2 R2336H ES cells, olaparib, CellTiter-Glo viability; hits give high values
Method in brief: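 Mouse BRCA2 R2336H ES cells were reverse-transfected with siRNA (20 nM final), treated at 48 h with 500 nM olaparib, and read by CellTiter-Glo after 72 h. Scores: MAD-based z per siRNA, median per gene, seed off-target correction.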

Row | Sequence | z-score
1 | GGCUUACCUGUACAUUGAUTT against C130053K05Rik | inactive: -2.17
2 | GGGCAUUUAGGGAAAAAAUTT against Zfp451 | inactive: 0.811
3 | GCCUCUCUCUAUCUAUGCATT against Tob2 | inactive: 0.661
4 | GGAAUUUUCAGUGUGUAAATT against Adam9 | inactive: 0.229
5 | GGUUUUAGUAUAAAGGCAGTT against Arfrp2 | inactive: -1.58
6 | GGAGCAUGUCUUUAAGAAGTT against Stac | inactive: -0.837
7 | GCAUCGUUAUGCGCCUCACTT against Neurog2 | inactive: 1.11
8 | GGUGGUGGUGGAAAAGAAGTT against Vars2 | inactive: -0.16
9 | GCGACAAGAGGCUUUAGCATT against H47 | inactive: -0.352
10 | CGCUCUCUACGAUCAUUGUTT against Olfr481 | inactive: -0.745
11 | CCUAACAUUCACUGUGUCATT against Olfr994 | inactive: 1.01
12 | CCGUUGGAUACUGUAGUUCTT against Gpr152 | inactive: 0.519
13 | CCACAAUUUGACCAACUUATT against Slc9a1 | inactive: 1.07
14 | GGGUCCUGUUUUUAUAAUATT against AW046014 | inactive: 1.59
15 | GGCCAGCAAACAGUUUCUATT against Bai1 | inactive: 2.51
16 | AAUUGUAUGGUACUUCAUGTT against Olfr620 | inactive: -0.334
17 | CCAACCCUAUUAGUGGAAGTT against 6720487G11Rik | inactive: -0.323
18 | GGGACAAAAGCUCCUCUAGTT against Kap | inactive: 0.638
19 | GCAAUAGUUUACUUGAAGATT against 1700047E16Rik | inactive: 0.213
20 | GCAUGAAAACACGUUUGGGTT against Hdac11 | inactive: 0.768
21 | CCGGUUGUUUUGAGUGUUGTT against Rad9b | inactive: 0.00893
22 | GGGCUCAUCUCAGAGGAGATT against Astl | inactive: -0.459
23 | GGAAAACUAACCAAAAUAGTT against F3 | inactive: -0.633
24 | GGCACUGGUUGCCAUAAAATT against 4930509O22 | inactive: -0.151
25 | GGGUUUCACUUUCAGUGGGTT against 4632412I24Rik | inactive: 1.39
26 | CCUGACAGUAGUUACUAUUTT against Olfr1154 | inactive: -0.936

Row | Sequence | z-score
27 | GGAGAACAAAGUGCACUUGTT against D11Ertd636e | inactive: -1.05
28 | GGCUUCUUCAGAUCCUAAATT against Olfr554 | inactive: 1.4
29 | CGAUAAACUGGAUACCACUTT against A430083B19Rik | inactive: -0.3
30 | GGGAAGAGAAUGAGAUAAATT against F7 | inactive: -0.0684
31 | GGAACAAGUAAAGACUGUUTT against 4932411K12 | inactive: -1.74
32 | GCAAUGGAUCUCGUUUUUCTT against Slc6a6 | inactive: 1.77
33 | CCAAAUAGCCAAACUCUUGTT against Fgf17 | inactive: -0.544
34 | GGAGUUUUCUUGUGUUUUUTT against Fgfbp1 | inactive: 0.524
35 | CGGAAACAACUGCUCUAUGTT against Scarf1 | inactive: 0.0378
36 | CAAUGUUUGGGAACCUUCUTT against Olfr834 | inactive: -0.879
37 | GGAUUCAGGAGAAAAGACCTT against Olfr569 | inactive: -0.312
38 | GGGAAACAUAUGGUUUUGCTT against D230050A05 | inactive: -0.538
39 | GCCAAGUGUUGGACUUUCATT against Fads3 | inactive: -0.51
40 | GGACCUAGAGGACUAUAAATT against Leprel1 | inactive: -0.265
41 | CCUAUGAGGUCAGAUUCUUTT against Ssr4 | inactive: 0.013
42 | GGAAGCUGUUCACCACUGCTT against Pex6 | inactive: -0.0859
43 | GGAAUUUUUGGACAAAGUATT against Grid2 | active: -3.07
44 | GCUUAUUUGUGGUACACGGTT against D030056L22 | inactive: 0.282
45 | GGUCAUAGUCACUGAUUCCTT against Magea5 | inactive: -1.31
46 | GCUCAUCGUGUUCGCUAUATT against Tuft1 | inactive: -0.57
47 | GGACAGUGAUGAAGAUAUGTT against Nol1 | inactive: -0.528
48 | GGAGGACAAUGGCUAAUAGTT against D930001I22Rik | inactive: -0.242
49 | GGGAGACACUACACAAAAATT against Hsd3b5 | inactive: 0.0155
50 | GGACAAGAAAACAGGUGUCTT against Tead3 | inactive: 0.967
51 | GGACACAAGAAUGGGAGAATT against Asph | inactive: -0.683
52 | GGCUAUGUGGGAGAGAAGATT against A530065I17Rik | inactive: 0.395

Row | Sequence | z-score
53 | CGCUCAUAGAUGAUGCUCUTT against D19Wsu162e | inactive: 1.86
54 | GCUGGAUGCCGUAUCUAAGTT against Gpiap1 | inactive: -1.05
55 | GGGAACAAAGAAUUUUACATT against 4121402D02Rik | inactive: 0.774
56 | GGUGUGUUCGAGUGUUUCUTT against Asb7 | inactive: 0.42
57 | GGAAACUGAUCUUUUGAAGTT against Ptgdr | inactive: 0.0499
58 | GCUGAAAAUACAAUCUCUGTT against Capn3 | inactive: 2.18
59 | GGUAGAUCCUAUCCUGUCUTT against Mllt7 | inactive: -1.41
60 | GGUUGGAGAAGUUGUUACUTT against Arl1 | inactive: -0.532
61 | GCUGAGAACACAACAGCUUTT against 2310035K24Rik | inactive: 0.311
62 | GGAACAGAGAGUAAAAUCUTT against ORF63 | inactive: -0.129
63 | GGUGGAUAGUGACUUAUAUTT against Ifi47 | inactive: -0.999
64 | CCUCUGUAGUCGCACCUAGTT against Agrp | inactive: -1.21
65 | GCUGUUCCGAUUGGAAAUUTT against Pcmt1 | inactive: -0.629
66 | GGCCAUAGUGAAGAAAGAATT against Hrasls3 | inactive: -1.16
67 | GGAUGCAAGGGUUUUUUCCTT against Pparg | inactive: 1.3
68 | GCCUCACUUGAUGAAAUGGTT against C330023F11Rik | inactive: -2.2
69 | CGGGUUUGUAAUAUUGUAUTT against 2900024O10Rik | inactive: 0.511
70 | GGGAAAACAGCAAAUAAUUTT against Efcbp1 | inactive: 1.12
71 | GGGCUAGAAGAACAUGUAATT against Ear1 | inactive: 1.14
72 | GGACAAGGCCUAUAGACCUTT against V1rl1 | inactive: 2.64
73 | CCGUCUUCGUUUGCCCUUGTT against Hod | inactive: -1.45
74 | GCUACUCGUUGUGAGAACUTT against 0610011N22Rik | inactive: 0.45
75 | GCACAGCUCUACAUAUUUCTT against Olfr313 | inactive: 0.637
76 | GGAAAAAGAGCAAAAGUCGTT against Rnpc2 | inactive: -0.37
77 | GCCUUAACAAUGUUAAUCATT against Igsf4d | inactive: 0.337
78 | GCUCAGCCUGAGUAACGCATT against Nup62 | inactive: -1.84

Retrieved one by one from the list above (five):
Row | Sequence | z-score
59 | GGUAGAUCCUAUCCUGUCUTT against Mllt7 | inactive: -1.41
66 | GGCCAUAGUGAAGAAAGAATT against Hrasls3 | inactive: -1.16
74 | GCUACUCGUUGUGAGAACUTT against 0610011N22Rik | inactive: 0.45
72 | GGACAAGGCCUAUAGACCUTT against V1rl1 | inactive: 2.64
58 | GCUGAAAAUACAAUCUCUGTT against Capn3 | inactive: 2.18

(continued)

Row | Sequence | z-score
79 | GGCAUCAAGUUCUAUCUGUTT against Gabt4 | inactive: -0.952
80 | CGGUCUACAAUAACAACAGTT against 1700009J07Rik | inactive: 0.786
81 | GGCUCUACCUUAACCUAUATT against 1810020D17Rik | inactive: -1.01
82 | CCCUAUAUGAAUAACUCAUTT against D930016N04Rik | inactive: 0.582
83 | GCUCCACUCAAUUCAGUCCTT against Cd19 | inactive: -0.589
84 | CGAGCUAACAGCAUUGCUGTT against Jub | inactive: 0.886
85 | GGACUCUGCUAGGAAGACATT against B230374F23Rik | inactive: 0.642
86 | CGUGGUUGUUACCUCCACATT against LOC268885 | inactive: 0.945
87 | GACCACCAGAAAGUUUCACTT against Lfng | inactive: -0.0122
88 | GGCAUUCUUAUAAAGAAACTT against Ube2q | inactive: 3.88
89 | GGAGAUCAUCGACCCAGUGTT against Tuba4 | inactive: -0.678
90 | GGAGUGUUUUGCAGUUUUATT against Tm7sf4 | inactive: -0.125
91 | GGCCAAAUUCUUCAGCAGATT against Rpl27a | inactive: -2.82
92 | GGAUGAAGAUGGUUCGUCGTT against Aof1 | inactive: 1.17
93 | GCCAACCAGCAUUUUUGACTT against 2310010M24Rik | inactive: 0.994
94 | CCAUUGUCAAGCCAGACUATT against Emilin1 | inactive: -0.373
95 | GGAACAGUUUGCUUGGAGATT against Rps10 | inactive: -3.24
96 | CCUAACAAAUGGUGGGAAATT against Nxph1 | inactive: -1.16
97 | GGACUCCUCCCAAGACGAATT against Avil | inactive: -0.505
98 | CGACUCAAUCAAUCUGAUUTT against Hook3 | inactive: 0.233
99 | GGAAGAAAGUCCUCUUUGCTT against Slc22a4 | inactive: -1.99
100 | GGCCCAGAAGGUUAUCAUCTT against Ptf1a | inactive: 0.85
101 | GGACUUCUCCAUCCUGACATT against Col5a1 | inactive: 1.61
102 | CCAAGGAUUGUAAAGAAACTT against Hunk | inactive: -0.106
103 | GGAACAAAAUACAUUCAAGTT against D430014M15 | inactive: 0.657
104 | GGUACAGGCAAUUAAACUUTT against 9030416H16Rik | inactive: -1.84
